Results are given in words; binding and its absence hold for the method and conditions named. Some results given as binding are weak or reduced against the parent protein; the word gives no strength.
Tests used:
[1] = target: human plasmin (human, UniProt P00747 97-810, limits assumed); assay: summary of binding and inhibition assays
[2] = target: protease domain of plasmin (microplasmin) (human) (UniProt P00747); assay: immunoblot of reduced human plasmin
[3] = target: protease domain of plasmin (microplasmin) (human) (UniProt P00747); assay: summary of ELISA and immunoblot

Protein sequences, listed by entry. Tags and fused reporters are not part of them. Lines headed by an entry give the natural chain unless they say otherwise; changes in a name come on top. Residues count along the entry.
UniProt P00747: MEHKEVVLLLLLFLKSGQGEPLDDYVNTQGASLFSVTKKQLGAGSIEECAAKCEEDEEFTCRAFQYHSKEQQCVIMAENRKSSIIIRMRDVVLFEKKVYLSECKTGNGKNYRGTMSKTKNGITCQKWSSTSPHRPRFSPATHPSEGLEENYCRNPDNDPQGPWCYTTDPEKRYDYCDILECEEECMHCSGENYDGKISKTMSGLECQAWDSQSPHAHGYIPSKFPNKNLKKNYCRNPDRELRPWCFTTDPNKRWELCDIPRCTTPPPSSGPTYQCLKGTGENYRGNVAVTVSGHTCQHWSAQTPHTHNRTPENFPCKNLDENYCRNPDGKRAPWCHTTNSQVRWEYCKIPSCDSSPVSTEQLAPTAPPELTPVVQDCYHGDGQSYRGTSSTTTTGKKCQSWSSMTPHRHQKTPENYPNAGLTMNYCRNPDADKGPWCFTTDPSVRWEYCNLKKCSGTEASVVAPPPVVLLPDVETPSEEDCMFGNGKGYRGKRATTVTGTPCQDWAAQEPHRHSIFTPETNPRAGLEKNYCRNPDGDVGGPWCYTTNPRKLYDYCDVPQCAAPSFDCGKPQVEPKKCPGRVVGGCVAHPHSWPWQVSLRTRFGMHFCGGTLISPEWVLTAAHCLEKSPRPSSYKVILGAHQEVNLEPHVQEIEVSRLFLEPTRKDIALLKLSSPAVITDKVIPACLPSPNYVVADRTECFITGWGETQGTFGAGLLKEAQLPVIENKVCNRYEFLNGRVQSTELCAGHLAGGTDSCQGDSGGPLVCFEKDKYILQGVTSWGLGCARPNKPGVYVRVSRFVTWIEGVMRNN
protease domain of plasmin (microplasmin): residues 562-810 of P00747

Measured: binding

B1: monoclonal antibody plasmin inhibitor (Pi) (antibody, mouse IgG1, kappa, V domains shown)
VH: EVKLLESGGGLVQPGGSLKLSCAASGFDFSRYWMSWVRQAPGKGLEWIGEINPDSSTINYTPSLKDKFIISRDNAKNSLYLQMSKVRSEDTALYYCASYCGYSYDALDCWGQGTSVTVSS
VL: DIQMTQSPSSLSASLGGKVSITCKASQDINKYISWYQHKPGKGPRLLIHYTSTLQPGIPSRFSGSGSGRDYSFSISNLEPEDIATYYCLQYDNLYTFGGGTKLEIKR
notes: Mouse hybridoma IgG purified from supernatant; also called Pi IgG; Pi MAb38
binds: all assays above
